# Measured values from the supplement of paper PMC11150407.
# The whole screen tested about 3,000 compounds, of which about 45 (2%) showed an effect of 50% or more. The list shows a part of the results.
# System: MOLM1 and UCSD/AML1 (averaged)
# Experiment: cell viability relative to DMSO control (POC); higher = less growth inhibition
# Conditions: 1 µM; 72 h
# Method: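 Primary viability screen in the 3q26 EVI1-high AML cell lines MOLM1 and UCSD/AML1, compounds at 1 uM for 72 h. ATP CellTiter-Glo read-out given as percent viable over DMSO control (POC), averaged over duplicates. This mapping covers the TimTec NDL-3000 natural derivative library, whose compounds are identified by TimTec catalogue codes (ST...).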
row,Compound,cell viability [%]
1,COc1cc(C(=O)Sc2ccc(Cl)cc2)cc(OC)c1OC,93.1
2,CCc1cccc(NC(=O)CSc2nc3c(=O)[nH]cnc3n2CC)c1,95.1
3,Cc1ccc2[nH]c(C)c(CCNC(=O)c3cc(F)c(F)cc3Cl)c2c1,99.2
4,O=C(O)C(Cc1c[nH]c2ccccc12)NCc1ccccc1F (stereo not given),101
5,CCOC(=O)c1ccccc1NC(=O)C(=O)Nc1ccccc1C(=O)OCC,97.1
6,COc1ccc(-c2cc(C(F)(F)F)nc(SC3CC(O)C4OCC3O4)n2)cc1OC (stereo not given),98.4
7,COc1cccc(-c2nc(CSc3nc4c(=O)[nH]cnc4n3-c3ccc(C)cc3)c(C)o2)c1OC,110
8,O=C(O)c1ccc(OCC[n+]2c(CCCc3[nH]c4ccccc4[n+]3CCOc3ccc(C(=O)O)cc3)[nH]c3ccccc32)cc1,104
9,CC(=O)OC1CCC2(C)C(CCC3(C)C2C(=O)C=C2C4CC(C)(C(=O)OCC5CCCO5)CCC4(C)CCC23C)C1(C)C (stereo not given),85.9
10,CC(C)(O)C#Cc1ccc2c3c(cccc13)C(=O)OC2=O,97.8
11,COc1cc(OC)cc(C(=O)N2CCN(Cc3ccccc3)CC2)c1,99.7
12,COc1cc(NC(=O)Cn2c(=O)cc(C(=O)N3CCCC3)c3ccccc32)cc(OC)c1,89.7
13,COc1cc(OC)cc(C(=O)Nc2ccc3c(c2)COC3=O)c1,95.3
14,O=c1cc(-c2ccc(Cl)cc2)oc2c(Cl)cc(Cl)cc12,114
15,O=C(Nc1ncnc2c1ncn2C1OC(COC(=O)c2ccccc2Br)C(OC(=O)c2ccccc2Br)C1OC(=O)c1ccccc1Br)c1ccccc1 (stereo not given),90.4
16,Cc1ccc(C(CC(=O)O)C2CCOC(C)(C)C2)cc1 (stereo not given),97.9
17,COc1ccccc1C(=O)NCCc1c(C)[nH]c2c(C)ccc(F)c12,95.5
18,COc1cc(/C=C/C(=O)c2ccc(C(=O)/C=C/c3cc(OC)c(OC)c(OC)c3)cc2)cc(OC)c1OC,106
19,CCCCOC(=O)c1cc(=O)[nH]c(=O)[nH]1,89.1
20,CCOC(=O)/C(C#N)=C\c1ccc(OC)c(OC)c1,95.7
21,CN(C)c1ccc(C(=O)N2CCc3ccccc3C2)cc1,96.5
22,N[C@@H](Cc1ccccc1)C(=O)Nc1ccc2ccccc2c1,100
23,CC(=O)N/C(=C/c1ccccc1)C(=O)NCc1ccco1,105
24,COc1ccc(C(=O)Nc2cnn(C(C)C)c2)cc1OC,107
25,C=CCNC(=O)C(=O)NCCc1c[nH]c2ccccc12,98.1
26,Cc1cccc(NC(=O)CSc2nc3c(=O)[nH]cnc3n2C)c1,107
27,CNCC(O)c1cccc(O)c1 (stereo not given),107

row,Compound,cell viability [%]
1,O=c1c(-c2ccccc2)c(O)c2ccccc2n1-c1ccccc1,97.5
2,COc1ccc(NCCC(=O)c2cc(OC)c(OC)c(OC)c2)cc1,81.1
3,CC(=O)c1ccc(N/C=C2\C(=O)C(O)=C(C(C)C)c3cc(C)c(-c4c(C)cc5c(c4O)/C(=C/Nc4ccc(C(C)=O)cc4)C(=O)C(O)=C5C(C)C)c(O)c32)cc1,104
4,Cn1c(=O)c2ccccc2n(CC(=O)N2CCc3ccccc3C2)c1=O,107
5,CC(=O)NCCOc1cccc2c1N(C(=O)c1ccc3c(c1)OCO3)CCC2,94.2
6,FC(F)(F)c1cccc(Nc2ncnc3ccccc23)c1,80.3
7,CCCNC(=O)c1cc(=O)n(CC(=O)Nc2ccc3c(c2)OCCO3)c2ccccc12,98.8
8,NC(COCc1ccccc1)C(=O)O (stereo not given),106
9,CCOC(=O)c1ccc(NC(=O)/C=C/C(=O)O)cc1,102
10,CCOC(=O)c1cn(-c2ccc(F)cc2F)c2nc(Cl)c(F)cc2c1=O,94.8
11,COc1cc(/C=C2\SC(=Nc3ccccc3)N(c3ccccc3)C2=O)cc(OC)c1O,102
12,CCC/C(O)=C1\C(=O)CCCC1=NCCc1c(C)[nH]c2ccc(C)cc12,94.9
13,COc1ccc(C(C)=O)c(O)c1OC,93.4
14,COc1ccc(NC(=O)Cn2c(=O)cc(C(=O)N3CCOCC3)c3ccccc32)cc1Cl,96.7
15,COc1ccc(C(=O)Nc2ccc(-c3nc4cc(Cl)cc(Cl)c4o3)cc2)cc1OC,104
16,CC(NC(=O)c1ccccc1)C(=O)O (stereo not given),99.5
17,COc1ccc2[nH]c(C)c(CCNC(=O)c3ccc(F)cc3)c2c1,96.8
18,Cc1cc2c(cc1S(=O)(=O)N1CCCC1C(=O)O)NC(=O)CO2 (stereo not given),99.9
19,CC(=O)Nc1ccc(NC(=O)Cn2c(=O)cc(C(=O)N3CCOCC3)c3ccccc32)cc1,96.3
20,CC(C)(C)c1ccc(C(=O)NCC(=O)O)cc1,95.9
21,COc1ccc(/C=C/C(=O)c2ccc(O)cc2C)cc1,22.5
22,CCc1ccc2oc(=O)cc(CN3CCN(Cc4ccc(OC)c(OC)c4OC)CC3)c2c1,61.1
23,Cc1cccc(Cn2c(SCc3ccccc3Cl)nc3c2c(=O)[nH]c(=O)n3C)c1,99.7
24,COc1ccc2[nH]c(C)c(CCNC(=O)c3ccc(C)c([N+](=O)[O-])c3)c2c1,96.9
25,Nc1ncnc2c1ncn2C1OC(COP(=O)(O)OP(=O)(O)O)C(O)C1O (stereo not given),107
26,Cc1nc2c(nc(SCc3nc(-c4ccccc4C)oc3C)n2C)c(=O)[nH]1,102
27,CC(=O)Nc1cc2c(ncn2C(C)=O)c(=O)[nH]1,105

# As entered above.
# cell viability [%], CC(=O)c1ccc(N/C=C2\C(=O)C(O)=C(C(C)C)c3cc(C)c(-c4c(C)cc5c(c4O)/C(=C/Nc4ccc(C(C)=O)cc4)C(=O)C(O)=C5C(C)C)c(O)c32)cc1 reads 104
# cell viability [%], CC(=O)Nc1ccc(NC(=O)Cn2c(=O)cc(C(=O)N3CCOCC3)c3ccccc32)cc1 reads 96.3

# (next part)

row,Compound,cell viability [%]
1,CCc1ccc2oc(-c3ccccc3)cc(=NCC(=O)NCC(=O)O)c2c1,102
2,CCOC(=O)c1ccc2[nH]c(-c3ccccc3)cc(=O)c2c1,7.45
3,COC(=O)c1c(O)cc(O)cc1O,112
4,COc1cccc(C(=O)NCCc2c(C)[nH]c3ccccc23)c1,96.3
5,Cc1ccc2occ(C3Nc4ccccc4NC4=C3C(=O)CC(c3ccccc3Cl)C4)c(=O)c2c1 (stereo not given),117
6,COc1ccc(NC(=O)CSc2nc3c(=O)[nH]cnc3n2C)cc1OC,102
7,COc1cc(C2NCCc3c2[nH]c2ccccc32)ccc1OC(C)C (stereo not given),96.1
8,COc1ccc(NC(=O)CSc2nc3c(=O)[nH]cnc3n2-c2ccc(C)cc2)c(OC)c1,102
9,CC(=O)Nc1ccc(NC(=O)/C=C/c2ccccc2)cc1,98.3
10,COc1cc(C(=O)N2CCCc3cccc(OCCNC(C)=O)c32)cc(OC)c1OC,98.7
11,CCOC(=O)CNC(=O)c1cc(Br)ccc1OCC(C)C,86.8
12,CC(=O)Nc1ccc(S(=O)(=O)N2CCCC2C(=O)O)cc1 (stereo not given),105
13,Cc1nc2cccc(C(=O)NCCc3c(C)[nH]c4ccc(OC(F)(F)F)cc34)c2o1,112
14,COc1cc(Cc2nccc3cc(OC)c(OC)cc23)c(NC(=O)CSc2ncccc2C(=O)O)cc1OC,95.2
15,COC(=O)C1=C(C)NC2=C(C(=O)CC(c3ccc(OC)c(OC)c3)C2)C1c1cc(OC)c(OC)c(OC)c1 (stereo not given),101
16,COC(=O)c1ccc(C2C(C(=O)OC(C)C)=C(N)Oc3c2oc(CO)cc3=O)cc1 (stereo not given),101
17,CCN(CC)C(=O)c1cc(=O)n(CC(=O)Nc2cccc(Cl)c2)c2ccccc12,92.1
18,COc1cc(C(=O)NC2Cc3ccccc3NC2=O)cc(OC)c1OC (stereo not given),109
19,O=C(O)/C=C/c1ccccc1OCc1ccccc1,102
20,Cc1cc(C)c(NC(=O)Cn2c(=O)cc(C(=O)NCc3ccccc3)c3ccccc32)c(C)c1,70.8
21,COc1cc(C(=O)Nc2cccc(-c3nncn3C)c2)cc(OC)c1OC,107
22,Cc1ccc2c(CN3CCN(Cc4ccc(Br)cc4F)CC3)cc(=O)oc2c1,100
23,COc1ccc(/C=C2\Oc3ccc(Cl)cc3C2=O)cc1OC,95.8
24,O=C(O)/C=C/c1cccc(Cl)c1,96.5
25,CC(C)OC(=O)COc1ccc2c(=O)c(-c3ccc(Cl)cc3)coc2c1,96.9
26,CCOc1cc2c(cc1OCC)C(c1ccc(Br)cc1)NCC2 (stereo not given),83.4
27,CCOC(=O)/C(C#N)=C/c1ccccc1Br,104

row,Compound,cell viability [%]
1,C/C=C/c1ccc(OCC(=O)O)c(OC)c1,100
2,O=C(Nc1c(C(=O)Nc2ccccc2)c2ccccc2n(Cc2ccc(F)cc2)c1=O)c1ccccc1,94.1
3,Cc1cc2c(C(C)C)c(O)c(O)c(C=Nc3cccc(N4CCCC4=O)c3)c2c(O)c1-c1c(C)cc2c(C(C)C)c(O)c(O)c(C=Nc3cccc(N4CCCC4=O)c3)c2c1O,92
4,Cc1cc(=O)n(C)c2ccccc12,106
5,Cc1cc(=O)oc2cc(OC(C)C(=O)O)ccc12 (stereo not given),89.6
6,O=C(Cn1c(=O)cc(C(=O)NCc2ccccc2)c2ccccc21)Nc1ccccc1,93.5
7,c1ccc(-c2csc(N3CCc4ccccc4C3)n2)cc1,104
8,CCc1ccc2oc(=O)cc(CN3CCN(Cc4nc(-c5ccc(C)cc5)oc4C)CC3)c2c1,96.3
9,CCCNC(=O)c1cc(=O)n(CC(=O)Nc2ccc(F)cc2C)c2ccccc12,103
10,CCOc1ccc(-c2nc(CSc3nc4c(=O)[nH]cnc4n3C)c(C)o2)cc1OC,118
11,CCOC(=O)C(C)Sc1nc(-c2ccccc2)cc(-c2ccccc2)c1C#N (stereo not given),96.6
12,Cn1c(=O)c2c(nc(NCCOc3ccc(Cl)cc3)n2C)n(C)c1=O,106
13,COc1cc(OC)cc(C(=O)NCCSCc2ccco2)c1,90.2
14,CCc1ccc(-c2cc(-c3cc(OC)c(OC)c(OC)c3)[nH]c(=O)c2C#N)cc1,96.9
15,O=C(O)c1c[nH]c2ccccc12,102
16,CCOC(=O)C(Cc1c[nH]c2ccccc12)NC(=O)COc1ccc(Br)cc1 (stereo not given),91.5
17,COC(=O)C1(C)CCC2(C)CCC3(C)C(=CCC4C5(C)CCC(O)C(C)(C)C5CCC43C)C2C1 (stereo not given),96.6
18,COc1ccc(Cl)cc1NC(=O)CSc1nc2c(=O)[nH]cnc2n1-c1ccccc1,83.7
19,Cc1ccc2c(CN3CCN(CC(=O)Nc4ccc(C)c(F)c4)CC3)cc(=O)oc2c1,89.1
20,O=c1[nH]cnc2n[nH]nc12,93.1
21,O=C(O)c1cccc(Nc2nc(-c3ccc(Cl)cc3)nc3ccccc23)c1,90
22,COC(=O)CCC1(C(=O)OC)CC2(CC2)N=N1 (stereo not given),98.8
23,COc1cc(C(=O)Oc2ccccc2)cc(OC)c1OC,108
24,COc1ccc2[nH]cc(CCNC(=O)c3nn(-c4ccccc4)nc3C)c2c1,107

# Random excerpt: four compounds from above, in no set order.
row,Compound,cell viability [%]
9,CCCNC(=O)c1cc(=O)n(CC(=O)Nc2ccc(F)cc2C)c2ccccc12,103
14,CCc1ccc(-c2cc(-c3cc(OC)c(OC)c(OC)c3)[nH]c(=O)c2C#N)cc1,96.9
13,COc1cc(OC)cc(C(=O)NCCSCc2ccco2)c1,90.2
21,O=C(O)c1cccc(Nc2nc(-c3ccc(Cl)cc3)nc3ccccc23)c1,90
